# In the supplement of paper PMC12823440, “Inhibitors supercharge kinase turnover through native proteolytic circuits” (Nature, 2025):
# Where a name gives a salt, the structure may show the parent alone. The list shows a part of the results. The calls rarely recur for the same compound in another form.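 Kinases were expressed as nanoluciferase fusions in K562 cells and luminescence was read every 4 h between 2 and 18 h as percent of control, DMSO set to 100% and a positive control to 0%. A time point counts as decreased when the signal drops significantly (2 sigma). The hit call is the authors' own, does not follow from the count of time points alone, and its rule is not shown.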
# Target: SYK (UniProt P43405)
# Experiment: number of time points (of 5) at which kinase-Nluc abundance scored as decreased, DMSO-normalised (count); higher = more persistent destabilization
# Settings: K562; 2-18 h
row,Structure (SMILES),number of time points
1,Cn1cc(-c2cc(Oc3cc(F)c(NC(=O)C4(C(=O)Nc5ccccc5)CC4)cc3F)ccn2)cn1 (2.5 µM),0
2,Nc1[nH]nc2nc(-c3ccc(NS(=O)(=O)c4cc(Cl)ccc4Cl)cc3)cnc12 (10 µM),0
3,Cc1cccc(/C=N/Nc2cc(N3CCOCC3)n3nc(-c4ccncc4)cc3n2)c1 (10 µM),0
4,CC(C)n1ncnc1-c1cn2c(n1)-c1ccc(O[C@@H](C)C(N)=O)cc1OCC2 (10 µM),0
5,COC(=O)[C@H](CCSC)NC(=O)c1ccc(NC[C@@H](N)CS)cc1-c1ccccc1 [FTI-277 (hydrochloride)] (10 µM),0
6,O=C(Nc1cccc(-c2nc(-c3ccc(NC(=O)c4cccnc4)cc3Cl)no2)c1)Nc1ccc(NC(=O)C2CC2)c(C(F)(F)F)c1 (2.5 µM),0
7,CN1CCN(c2cc(-c3ccncc3)c(-c3ccc4ccccc4c3)nn2)CC1 (10 µM),0
8,CNC(=O)c1ccc2c(c1)ncn2-c1ccc(CC(=O)OC(C)(C)C)cc1 (10 µM),0
9,O=C(O)[C@H]1O[C@@H](Oc2cc3oc(-c4ccc(O)cc4)cc(=O)c3c(O)c2O)[C@H](O)[C@@H](O)[C@@H]1O [Scutellarin] (10 µM),0
10,Cc1nn(C)cc1-c1nc2c(N3CCN(Cc4ccc(Cl)cc4)CC3)c(Cl)cnc2[nH]1 (10 µM),0
11,Cc1cc(CSc2ccccc2C(=O)NCCNc2ccc(C(F)(F)F)cc2[N+](=O)[O-])on1 (10 µM),0
12,NC(=O)c1cnc(-c2ccc(C3(N)CCC3)cc2)c(-c2ccccc2)c1 (10 µM),0
13,CCCCCC(=O)N[C@@H](Cc1ccc(O)cc1)C(=O)OC (10 µM),0
14,CNC(=O)c1ccc2c(C(=Nc3cccc(CN(C)C)c3)c3ccccc3)c(O)[nH]c2c1 [MEK inhibitor] (10 µM),0
15,COc1cc2ncnc(Nc3cccc(I)c3)c2cc1OC (2.5 µM),0
16,COc1c(O)cc2oc(-c3ccc(O)cc3)cc(=O)c2c1O [Hispidulin] (10 µM),0
17,CC(C)=CC[C@@H](O)C1=CC(=O)c2c(O)ccc(O)c2C1=O [Shikonin] (10 µM),0
18,N[C@@H]1CCCN(c2c(/C=C3\SC(=O)NC3=O)cccc2-c2ccccc2)C1 (10 µM),0
19,NC(=O)c1ccc(N(C(N)=O)c2c(F)cccc2F)nc1-c1ccc(F)cc1F (10 µM),0

# Structures above containing a CF3 group, in the order listed:
row,Structure (SMILES),number of time points
6,O=C(Nc1cccc(-c2nc(-c3ccc(NC(=O)c4cccnc4)cc3Cl)no2)c1)Nc1ccc(NC(=O)C2CC2)c(C(F)(F)F)c1 (2.5 µM),0
11,Cc1cc(CSc2ccccc2C(=O)NCCNc2ccc(C(F)(F)F)cc2[N+](=O)[O-])on1 (10 µM),0

# Going on with the list:

row,Structure (SMILES),number of time points
1,NC1(C(=O)NCCCn2cc(-c3ccc(OC(F)(F)F)cc3)c3cc(CN4CCN(Cc5c(Cl)cccc5Cl)CC4)ccc32)CCNCC1 (2.5 µM),1
2,Cc1cc(O)c2c(c1)C(=O)c1cccc(O)c1C2=O [Chrysophanol] (2 µM),0
3,COc1cc2nccc(Oc3ccc(NC(=O)c4cn(C(C)C)c(=O)n(-c5ccc(F)cc5)c4=O)cc3F)c2cc1OC (0.5 µM),0
4,O=C(Nc1cccnc1)c1cc(-c2ccnc(F)c2)ccc1OCc1ccccc1 (10 µM),0
5,NC[C@@](O)(c1ccc(Cl)cc1)c1ccc(-c2cn[nH]c2)cc1 (10 µM),0
6,O=C1NC(=O)/C(=C\c2c[nH]c(=O)c(-c3ccc(N4CCNCC4)nc3)c2)S1 [Protein kinase inhibitors 1 hydrochloride] (10 µM),0
7,C[C@@H](Nc1ncnc2[nH]c(-c3ccc(O)cc3)cc12)c1ccccc1 (2.5 µM),0
8,Cc1ccc(C(=O)NC2CC2)cc1-n1ncc(C(=O)c2cccc(C#N)c2)c1N [Acumapimod] (10 µM),0
9,C[C@H]1O[C@@H](O[C@H]2CC[C@@]3(C)[C@@H](CC[C@]4(C)[C@@H]3C=C[C@]35OC[C@@]6(CCC(C)(C)C[C@H]63)[C@H](O)C[C@]54C)[C@]2(C)CO)[C@H](O)[C@@H](O[C@@H]2O[C@H](CO)[C@@H](O)[C@H](O)[C@H]2O)[C@H]1O [Saikosaponin D] (2.5 µM),0
10,N#Cc1ccc(-c2cnc3[nH]cc(NC(=O)c4cccnc4)c3c2)cc1 (10 µM),0
11,CCCCCc1ccc(/C=C/[C@H](O)[C@@H](CO)NC)cc1 [SK1-I (hydrochloride)] (10 µM),0
12,COc1ccc2c3n(c(=NC(=O)c4cccnc4)nc2c1OC)CCN3 (2 µM),0
13,CN1CCN(c2ccc(Nc3ncc4cc(C#N)c(=O)n(C5CCCC5)c4n3)cc2)CC1 (10 µM),0
14,COc1ccc(S(=O)(=O)Nc2cc(-c3c(O)ccc4ccccc34)c(O)c3ccccc23)cc1 (10 µM),0
15,CC(C)(C)Cc1[nH]nc2c1[C@@](C)(c1ccccc1)C1=C(CC(C)(C)CC1=O)N2 (10 µM),0
16,Cn1c2cc([S+](C)[O-])sc2c2cnn(Cc3cccc(N)c3)c(=O)c21 (stereo not drawn) (2.5 µM),0
17,Nc1ncc(-c2ccnc(Nc3ccncc3)n2)c(CC2CC2)n1 (10 µM),0
18,O=C(NCCN1CCOCC1)Nc1nc2ccc(Sc3nnc4ccc(-c5ccc(F)cc5)nn34)cc2s1 (10 µM),0
19,CC(C)Oc1ccc(F)c(-c2cnc(N)c(C(=O)Nc3cnccc3N3CCC[C@@H](C(=O)O)C3)n2)c1 (2 µM),0
